Data as given in PubChem BioAssay AID1224830 (NIAID, 2016)
Purpose: 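Host factors that control LPS-induced TNF expression in human macrophages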 (primary screen). Cells: human THP-1 monocytic leukaemia cells, TNF dual-luciferase reporter clone, PMA-differentiated to macrophage-like cells. Reagent: siRNA pool against human genes, 50 nM. Time to read-out: LPS for 4 h, given about 3 days after siRNA transfection. Conditions: bacterial LPS (TLR4 ligand), 10 ng/ml. Detection: 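TNF firefly reporter luminescence divided by renilla, normalised to the plate median, then turned into a robust z-score for each replicate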. Reading the numbers: TNF reporter robust z-score: higher = stronger TNF reporter response to LPS. Call rule: 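Each well counts as active if its z-score is over 2.8 or under -1.5; controls are left without a call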.
The whole screen tested about 18,000 reagents; shown is a part drawn at random. About 2,900 of them (16%) were called active. 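Calls are made per well; low scores hint the gene aids the LPS response, high scores that it dampens it.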 Entries without a mark were called inactive. Repeated entries: four replicate wells of each siRNA pool.

gene	TNF reporter robust z-score
NPM2 (nucleophosmin/nucleoplasmin 2)	0.74
NPM2 (nucleophosmin/nucleoplasmin 2)	1.21
NPM2 (nucleophosmin/nucleoplasmin 2)	1.68
NPM2 (nucleophosmin/nucleoplasmin 2)	2.07
ZNF669 (zinc finger protein 669)	-0.99
ZNF669 (zinc finger protein 669)	-0.2
ZNF669 (zinc finger protein 669)	-0.17
ACOX1 (acyl-CoA oxidase 1)	-0.54
ACOX1 (acyl-CoA oxidase 1)	-0.47
ACOX1 (acyl-CoA oxidase 1)	-0.68
ACOX1 (acyl-CoA oxidase 1)	-0.08
GJA3 (gap junction protein alpha 3)	0.04
GJA3 (gap junction protein alpha 3)	1.75
GJA3 (gap junction protein alpha 3)	1.21
GJA3 (gap junction protein alpha 3)	4.67 (active)
ATRX (ATRX chromatin remodeler)	-0.92
ATRX (ATRX chromatin remodeler)	0.16
ATRX (ATRX chromatin remodeler)	0.39
ATRX (ATRX chromatin remodeler)	1.37
AOC2 (amine oxidase copper containing 2)	-0.25
AOC2 (amine oxidase copper containing 2)	3.91 (active)
AOC2 (amine oxidase copper containing 2)	1.02
AOC2 (amine oxidase copper containing 2)	2.72
TRIB2 (tribbles pseudokinase 2)	0.56
TRIB2 (tribbles pseudokinase 2)	0.04
TRIB2 (tribbles pseudokinase 2)	0.72
TRIB2 (tribbles pseudokinase 2)	-0.24
EYA1 (EYA transcriptional coactivator and phosphatase 1)	-0.13
EYA1 (EYA transcriptional coactivator and phosphatase 1)	-0.74
EYA1 (EYA transcriptional coactivator and phosphatase 1)	-0.32
EYA1 (EYA transcriptional coactivator and phosphatase 1)	-0.27
HCAR1 (hydroxycarboxylic acid receptor 1)	0.55
HCAR1 (hydroxycarboxylic acid receptor 1)	0.11
HCAR1 (hydroxycarboxylic acid receptor 1)	1.47
HCAR1 (hydroxycarboxylic acid receptor 1)	1.19
S1PR4 (sphingosine-1-phosphate receptor 4)	0.59
S1PR4 (sphingosine-1-phosphate receptor 4)	0.91
S1PR4 (sphingosine-1-phosphate receptor 4)	1.02
S1PR4 (sphingosine-1-phosphate receptor 4)	0.9
EGLN3 (egl-9 family hypoxia inducible factor 3)	0.47
EGLN3 (egl-9 family hypoxia inducible factor 3)	1.38
EGLN3 (egl-9 family hypoxia inducible factor 3)	0.5
EGLN3 (egl-9 family hypoxia inducible factor 3)	2.23
SPRR2F (small proline rich protein 2F)	-1
SPRR2F (small proline rich protein 2F)	-1.62 (active)
SPRR2F (small proline rich protein 2F)	-1.37
SPRR2F (small proline rich protein 2F)	-0.92
CYTH3 (cytohesin 3)	0.09
CYTH3 (cytohesin 3)	-0.2
CYTH3 (cytohesin 3)	0.9
CYTH3 (cytohesin 3)	0.02
ZNF565 (zinc finger protein 565)	-0.92
ZNF565 (zinc finger protein 565)	-0.52
ZNF565 (zinc finger protein 565)	-0.75
ZNF565 (zinc finger protein 565)	-0.45
TCOF1 (treacle ribosome biogenesis factor 1)	-1.49
TCOF1 (treacle ribosome biogenesis factor 1)	-1.48
TCOF1 (treacle ribosome biogenesis factor 1)	-1.23
TCOF1 (treacle ribosome biogenesis factor 1)	-1.5
UPF3A (UPF3A regulator of nonsense mediated mRNA decay)	1.12
UPF3A (UPF3A regulator of nonsense mediated mRNA decay)	0.82
UPF3A (UPF3A regulator of nonsense mediated mRNA decay)	3.01 (active)
UPF3A (UPF3A regulator of nonsense mediated mRNA decay)	0.18
LINC02897 (long independently transcribed non-coding RNA 2897)	-0.27
LINC02897 (long independently transcribed non-coding RNA 2897)	0.22
LINC02897 (long independently transcribed non-coding RNA 2897)	-0.4
LINC02897 (long independently transcribed non-coding RNA 2897)	-0.26
CMPK1 (cytidine/uridine monophosphate kinase 1)	1.1
CMPK1 (cytidine/uridine monophosphate kinase 1)	0.64
CMPK1 (cytidine/uridine monophosphate kinase 1)	0.53
CMPK1 (cytidine/uridine monophosphate kinase 1)	0.31
TEX15 (testis expressed 15, meiosis and synapsis associated)	-0.66
TEX15 (testis expressed 15, meiosis and synapsis associated)	0.1
TEX15 (testis expressed 15, meiosis and synapsis associated)	-0.1
TEX15 (testis expressed 15, meiosis and synapsis associated)	-0.12
HPCA (hippocalcin)	0.14
HPCA (hippocalcin)	-0.8
HPCA (hippocalcin)	-0.49
HPCA (hippocalcin)	-1
EMID1 (EMI domain containing 1)	-1.27
EMID1 (EMI domain containing 1)	-1.22
EMID1 (EMI domain containing 1)	-1.07
EMID1 (EMI domain containing 1)	-0.86
MYOZ3 (myozenin 3)	0.64
MYOZ3 (myozenin 3)	1.03
MYOZ3 (myozenin 3)	0.9
MYOZ3 (myozenin 3)	0.81
EPDR1 (ependymin related 1)	1.04
EPDR1 (ependymin related 1)	2.53
EPDR1 (ependymin related 1)	-0.82
EPDR1 (ependymin related 1)	0.6
DVL1 (dishevelled segment polarity protein 1)	-0.61
DVL1 (dishevelled segment polarity protein 1)	-0.53
DVL1 (dishevelled segment polarity protein 1)	-1.11
DVL1 (dishevelled segment polarity protein 1)	0.18
SPON2 (spondin 2)	-0.82
SPON2 (spondin 2)	-0.89
SPON2 (spondin 2)	-1.06
SPON2 (spondin 2)	-0.69
NFATC2 (nuclear factor of activated T cells 2)	0.12
NFATC2 (nuclear factor of activated T cells 2)	0.35
NFATC2 (nuclear factor of activated T cells 2)	0.81
NFATC2 (nuclear factor of activated T cells 2)	1.22
SLC30A2	0.3
SLC30A2	0.49
SLC30A2	0.17
SLC30A2	0.29
NME6 (NME/NM23 nucleoside diphosphate kinase 6)	-0.41
NME6 (NME/NM23 nucleoside diphosphate kinase 6)	-0.93
NME6 (NME/NM23 nucleoside diphosphate kinase 6)	-0.14
NME6 (NME/NM23 nucleoside diphosphate kinase 6)	0.02

Reagents listed so far called active, once more:
gene	TNF reporter robust z-score
GJA3 (gap junction protein alpha 3)	4.67 (active)
AOC2 (amine oxidase copper containing 2)	3.91 (active)
SPRR2F (small proline rich protein 2F)	-1.62 (active)
UPF3A (UPF3A regulator of nonsense mediated mRNA decay)	3.01 (active)
